Results published in PMC10997078.
These are yes or no findings as the source states them, for the method shown. In cells and extracts the contact can be indirect. Some binding calls cover weakened binding; strength is not graded here.

Chains of the proteins cited; added tags and fusions are not shown.
UniProt P06733: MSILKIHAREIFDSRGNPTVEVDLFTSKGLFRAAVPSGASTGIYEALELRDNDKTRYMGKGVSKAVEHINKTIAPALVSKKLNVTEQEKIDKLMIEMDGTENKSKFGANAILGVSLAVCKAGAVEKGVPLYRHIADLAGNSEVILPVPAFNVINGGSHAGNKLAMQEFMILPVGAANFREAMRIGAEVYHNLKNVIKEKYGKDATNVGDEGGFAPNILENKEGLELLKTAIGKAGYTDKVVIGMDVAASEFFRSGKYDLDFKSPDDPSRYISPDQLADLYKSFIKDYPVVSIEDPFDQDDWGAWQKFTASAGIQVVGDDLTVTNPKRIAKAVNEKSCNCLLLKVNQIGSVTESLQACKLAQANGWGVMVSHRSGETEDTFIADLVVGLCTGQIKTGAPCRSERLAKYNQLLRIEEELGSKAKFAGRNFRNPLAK
UniProt Q92830: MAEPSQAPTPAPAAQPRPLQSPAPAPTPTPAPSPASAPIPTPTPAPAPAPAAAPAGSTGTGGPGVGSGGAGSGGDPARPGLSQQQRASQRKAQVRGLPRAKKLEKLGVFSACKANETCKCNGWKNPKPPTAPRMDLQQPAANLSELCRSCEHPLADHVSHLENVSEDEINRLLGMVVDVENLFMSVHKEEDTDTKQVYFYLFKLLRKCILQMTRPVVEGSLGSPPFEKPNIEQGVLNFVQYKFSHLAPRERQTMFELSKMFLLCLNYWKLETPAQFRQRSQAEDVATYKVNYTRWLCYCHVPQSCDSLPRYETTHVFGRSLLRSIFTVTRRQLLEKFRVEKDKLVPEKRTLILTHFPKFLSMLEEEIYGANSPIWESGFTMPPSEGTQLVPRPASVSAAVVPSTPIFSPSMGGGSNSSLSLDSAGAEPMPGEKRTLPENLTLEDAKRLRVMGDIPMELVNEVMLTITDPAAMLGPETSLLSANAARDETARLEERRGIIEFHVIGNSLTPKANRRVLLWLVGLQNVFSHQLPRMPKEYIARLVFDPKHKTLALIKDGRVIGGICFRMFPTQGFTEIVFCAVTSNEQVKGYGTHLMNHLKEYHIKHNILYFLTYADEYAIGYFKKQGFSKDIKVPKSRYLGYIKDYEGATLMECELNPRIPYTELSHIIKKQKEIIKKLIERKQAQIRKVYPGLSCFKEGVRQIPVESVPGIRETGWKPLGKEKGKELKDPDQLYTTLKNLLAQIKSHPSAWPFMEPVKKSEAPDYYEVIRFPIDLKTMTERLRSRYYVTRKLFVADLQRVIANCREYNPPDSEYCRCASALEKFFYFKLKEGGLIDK

Biological target: alpha-enolase (ENO1) (human (endogenous in endometrial stromal cells from patients)) (UniProt P06733)
Experiment: co-IP; primary antibody against KAT2A or ENO1 added to the extracted protein, overnight at 4°C; protein A/G beads 4°C, 2 h; blot for ENO1 and KAT2A

- binding: binds
Substance: lysine acetyltransferase 2A (KAT2A) (from UniProt Q92830 1-837) (enzyme)
